One experiment addresses T1, β-catenin (M. musculus, UniProt Q02248 1-781).
T1 sequence (looked up): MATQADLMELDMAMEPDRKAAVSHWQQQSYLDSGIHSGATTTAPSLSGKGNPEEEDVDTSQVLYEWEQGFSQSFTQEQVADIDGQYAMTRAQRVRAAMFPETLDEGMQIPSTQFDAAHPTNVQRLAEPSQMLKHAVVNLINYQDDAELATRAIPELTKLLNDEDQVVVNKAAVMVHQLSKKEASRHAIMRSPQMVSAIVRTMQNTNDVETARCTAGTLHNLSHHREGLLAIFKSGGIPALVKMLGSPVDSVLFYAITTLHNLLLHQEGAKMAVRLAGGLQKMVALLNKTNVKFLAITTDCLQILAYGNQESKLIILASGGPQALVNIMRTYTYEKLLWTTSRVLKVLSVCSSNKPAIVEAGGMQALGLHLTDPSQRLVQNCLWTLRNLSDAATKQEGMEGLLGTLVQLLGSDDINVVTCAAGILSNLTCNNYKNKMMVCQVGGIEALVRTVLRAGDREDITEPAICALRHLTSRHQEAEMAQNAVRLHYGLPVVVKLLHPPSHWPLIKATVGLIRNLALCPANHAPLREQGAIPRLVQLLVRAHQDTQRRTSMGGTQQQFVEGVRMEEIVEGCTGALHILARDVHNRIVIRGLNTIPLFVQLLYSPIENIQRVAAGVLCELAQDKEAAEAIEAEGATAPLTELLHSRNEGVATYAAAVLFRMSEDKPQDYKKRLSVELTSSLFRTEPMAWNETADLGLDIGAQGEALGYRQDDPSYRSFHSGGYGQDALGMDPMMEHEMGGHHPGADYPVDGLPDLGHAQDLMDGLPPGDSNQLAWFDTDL
In words: purified complex used as ITC sample.

The chains behind the UniProt entries cited, without tags or fusion partners. Residues count along the entry.
αE-catenin M1-M3 (aa273-651) (P26231, residues 273-651): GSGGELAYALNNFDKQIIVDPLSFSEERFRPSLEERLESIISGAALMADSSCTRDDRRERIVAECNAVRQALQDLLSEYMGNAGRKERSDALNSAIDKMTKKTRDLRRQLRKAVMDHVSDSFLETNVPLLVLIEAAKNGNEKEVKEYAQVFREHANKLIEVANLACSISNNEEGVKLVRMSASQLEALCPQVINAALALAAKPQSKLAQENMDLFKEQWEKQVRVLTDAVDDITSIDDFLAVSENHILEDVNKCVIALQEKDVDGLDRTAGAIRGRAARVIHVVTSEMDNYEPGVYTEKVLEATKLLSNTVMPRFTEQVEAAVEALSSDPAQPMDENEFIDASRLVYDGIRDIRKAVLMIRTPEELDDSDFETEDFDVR
αE-catenin M1-M2 (aa273-510) (P26231, residues 273-510): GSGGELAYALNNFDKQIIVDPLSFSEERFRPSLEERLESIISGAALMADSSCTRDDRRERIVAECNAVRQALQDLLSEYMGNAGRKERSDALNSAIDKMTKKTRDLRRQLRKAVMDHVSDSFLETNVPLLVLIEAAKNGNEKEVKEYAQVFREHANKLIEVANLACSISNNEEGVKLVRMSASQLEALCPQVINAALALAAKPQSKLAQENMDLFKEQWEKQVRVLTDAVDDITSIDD
UniProt P15116, residues 746-906: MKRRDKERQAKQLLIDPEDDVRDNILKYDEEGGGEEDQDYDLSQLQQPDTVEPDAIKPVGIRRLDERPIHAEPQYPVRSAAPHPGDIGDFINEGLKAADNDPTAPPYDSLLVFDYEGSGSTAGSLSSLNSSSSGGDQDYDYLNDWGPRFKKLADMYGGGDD

Experiment [1] deals with T2, αT-catenin M1-M3 (aa260-626) (M. musculus, UniProt Q65CL1 260-626).
T2 sequence (looked up): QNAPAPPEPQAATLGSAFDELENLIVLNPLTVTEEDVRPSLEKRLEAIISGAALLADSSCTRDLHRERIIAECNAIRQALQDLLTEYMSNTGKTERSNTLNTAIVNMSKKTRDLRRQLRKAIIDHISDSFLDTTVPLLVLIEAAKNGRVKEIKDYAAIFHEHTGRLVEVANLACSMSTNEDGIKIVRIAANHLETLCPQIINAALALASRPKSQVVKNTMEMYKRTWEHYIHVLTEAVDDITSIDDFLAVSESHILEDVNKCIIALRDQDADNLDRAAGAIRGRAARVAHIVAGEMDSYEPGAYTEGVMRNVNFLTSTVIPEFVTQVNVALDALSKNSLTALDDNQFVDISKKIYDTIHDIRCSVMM
The experiment can be described thus: ITC.

Experiment [2] concerns the target αE-catenin M1-M3 (aa273-651) (M. musculus) (UniProt P26231). In words: ITC. A general note: ITC needs no label: the signal is the heat of the interaction.
Experiment [3] deals with αE-catenin M1-M2 (aa273-510) (M. musculus) (UniProt P26231). The experiment can be described thus: ITC.

Results are given in words; binding and its absence hold for the method and conditions named. Some binding calls cover weakened binding; strength is not graded here.

Consider “N-cadherin cytoplasmic tail (from UniProt P15116 746-906) (domain or fragment)”, for which the binding entry with β-catenin is “binds”.

B1: vinculin D1 (aa1-259) (domain or fragment, UniProt P12003 1-259, looked up)
chain: MPVFHTRTIESILEPVAQQISHLVIMHEEGEVDGKAIPDLTAPVSAVQAAVSNLVRVGKETVQTTEDQILKRDMPPAFIKVENACTKLVRAAQMLQADPYSVPARDYLIDGSRGILSGTSDLLLTFDEAEVRKIIRVCKGILEYLTVAEVVETMEDLVTYTKNLGPGMTKMAKMIDERQQELTHQEHRVMLVNSMNTVKELLPVLISAMKIFVTTKNTKSQGIEEALKNRNFTVEKMSAEINEIIRVLQLTSWDEDAWA
Take B1: the binding result in experiment [1] is listed as “binds”; in experiment [2], “binds weakly”; in experiment [3], “binds”.

The values are drawn from article doi:10.1101/2020.10.25.354415 (bioRxiv, 2020).
